Data: paper doi:10.1101/177881
These are yes or no findings as the source states them, for the method shown. Binding seen in cells or lysates may run through a third protein.

Chains of the proteins cited; added tags and fusions are not shown.
UniProt Q00987: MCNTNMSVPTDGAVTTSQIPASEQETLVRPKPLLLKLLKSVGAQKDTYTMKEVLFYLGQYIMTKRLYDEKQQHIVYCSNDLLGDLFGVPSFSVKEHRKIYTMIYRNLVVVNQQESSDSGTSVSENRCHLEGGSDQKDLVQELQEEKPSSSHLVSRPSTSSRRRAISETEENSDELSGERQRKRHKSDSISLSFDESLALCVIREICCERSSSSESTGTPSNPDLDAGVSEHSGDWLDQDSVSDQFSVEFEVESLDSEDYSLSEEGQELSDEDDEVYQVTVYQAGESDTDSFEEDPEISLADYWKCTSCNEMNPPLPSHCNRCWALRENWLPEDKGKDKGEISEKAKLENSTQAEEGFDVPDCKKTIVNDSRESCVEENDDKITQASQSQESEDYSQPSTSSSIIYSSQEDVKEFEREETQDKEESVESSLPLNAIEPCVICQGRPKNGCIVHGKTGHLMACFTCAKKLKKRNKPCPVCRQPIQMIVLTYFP

Target: HA-MDM2 (UniProt Q00987)
Assay: co-IP

binding: no binding
Substance: Myc-SPIN1 (from UniProt Q9Y657 1-262)
